Test results reported in PubChem BioAssay AID504375 (National Center for Advancing Translational Sciences (NCATS), 2011).
The campaign covered roughly 1,600 compounds. About 25 (2%) were called active. About 7% were inconclusive and are not listed. The call rests on the fitted dose curve; in most records, active means well fitted inhibition curve with a large enough effect; inconclusive means small, poorly fitted or top-dose-only effect, or effect the other way; inactive means no such curve, though single readings can be large or run the other way. The list shows a part of the results.

Protein sequences, listed by entry. Tags and fused reporters are not part of them.
UniProt Q01196, whole entry, looked up: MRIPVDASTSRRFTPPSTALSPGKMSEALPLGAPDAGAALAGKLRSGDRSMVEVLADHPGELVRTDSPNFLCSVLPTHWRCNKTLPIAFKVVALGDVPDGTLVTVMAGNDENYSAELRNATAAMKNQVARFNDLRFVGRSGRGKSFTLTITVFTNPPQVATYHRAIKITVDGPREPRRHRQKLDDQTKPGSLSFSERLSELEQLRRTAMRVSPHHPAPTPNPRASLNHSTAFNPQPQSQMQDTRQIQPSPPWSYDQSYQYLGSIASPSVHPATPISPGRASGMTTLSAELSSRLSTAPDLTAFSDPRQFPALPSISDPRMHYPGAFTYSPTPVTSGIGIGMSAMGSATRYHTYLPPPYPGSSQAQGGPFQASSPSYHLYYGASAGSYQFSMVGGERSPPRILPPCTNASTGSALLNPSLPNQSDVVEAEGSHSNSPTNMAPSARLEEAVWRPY
UniProt Q13951, whole entry, looked up: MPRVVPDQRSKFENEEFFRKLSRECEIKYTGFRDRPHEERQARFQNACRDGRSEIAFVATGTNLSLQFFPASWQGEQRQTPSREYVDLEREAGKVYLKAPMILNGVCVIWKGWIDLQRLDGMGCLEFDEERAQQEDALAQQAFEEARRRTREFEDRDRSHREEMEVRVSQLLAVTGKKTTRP

target: Runt-related transcription factor 1 (Homo sapiens) + Core-binding factor subunit beta (Homo sapiens) (UniProt Q01196+Q13951); assay: qHTS Assay for Compounds Blocking the Interaction Between CBF-beta and RUNX1 for the Treatment of Acute Myeloid Leukemia: Hit Validation with Orthogonal Assay; conditions: CBFbeta-RUNX1 binding orthogonal assay, biochemical; series mostly up to 41 µM; activity change, negative = inhibition: at the top concentration
Method in brief: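 This is an orthogonal TR-FRET assay. His6-CBF-beta and biotin-RUNX1 (30 nM each) were preincubated with compound for 30 min, then Tb-anti-His antibody (0.44 ng) and streptavidin-XL665 (5 nM) were added. The signal was read after 90 min.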
On the % scale 0 is the no-effect control and ±100 the full control effect; potency means the concentration at half of the fitted maximal effect.

Row | SMILES | activity change, negative = inhibition | Potency
1 | CCC1=NN(C(=O)Cc2ccc([N+](=O)[O-])cc2)C(O)(C(F)(F)F)C1 (configuration not stated) | inactive: 12.9% | –
2 | COc1ccc(NC(=O)O/N=C/c2ccccc2Cl)cc1 | inactive: 3.39% | –
3 | O=C(OCC(O)COC(=O)c1cccnc1)c1cccnc1 | inactive: -0.453% | –
4 | COc1ccc(Nc2cc(C)nc(NCc3ccccc3)n2)cc1 | inactive: -3.57% | –
5 | Cc1ccc(C)c(-n2c(-c3ccc(Br)cc3)csc2=NC(=O)c2ccccc2F)c1 | inactive: 15.8% | –
6 | Clc1ccc(-c2nnc(N3CCOCC3)o2)cc1 | inactive: -5.87% | –
7 | Cn1cccc1/C=C(\C#N)C(N)=S | inactive: 21.6% | –
8 | CCCn1nnc(NC(=O)c2ccc3c(c2)OCO3)n1 | inactive: 3.68% | –
9 | Cn1nc(-c2ccccc2)cc1NS(=O)(=O)c1ccc(C#N)cc1 | inactive: -0.807% | –
10 | COC(=O)C1=C(N)Oc2c(oc(CO)cc2=O)C1c1ccc(F)cc1 (configuration not stated) | inactive: 9% | –
11 | C/C(Cc1ccccc1)=N\NC(=O)CNC(=O)COc1cccc(C)c1 | inactive: -8.61% | –
12 | O=C(O)c1cc(NN=C2CCN(Cc3ccccc3)CC2)ccc1Cl | inactive: -0.979% | –
13 | NC(=O)C1CCN(c2c([N+](=O)[O-])cc(C(F)(F)F)cc2[N+](=O)[O-])CC1 | inactive: 51.5% | –
14 | O=C(NN1C(=O)C2CCCCC2C1=O)c1ccco1 (configuration not stated) | inactive: -0.159% | –
15 | Cc1cc(=O)[nH]c2c1c(-c1ccccc1)nn2C | inactive: -7.17% | –
16 | O=C(NCCC(=O)N1CCOCCOCCOCCOCC1)OCc1ccccc1 | inactive: -6.46% | –

Complete entries from above.
Cc1cc(=O)[nH]c2c1c(-c1ccccc1)nn2C reads activity change, negative = inhibition: inactive: -7.17%
O=C(OCC(O)COC(=O)c1cccnc1)c1cccnc1 reads activity change, negative = inhibition: inactive: -0.453%

The results go on:

Row | SMILES | activity change, negative = inhibition | Potency
17 | C=CCn1c(SCc2n[nH]c(=S)n2-c2ccccc2)nnc1-c1ccccc1 | inactive: 9.91% | –
18 | COCc1cc(=O)n2[nH]c(C(C)(C)C)cc2n1 | inactive: -2.01% | –
19 | CCc1c(C#N)sc(C(N)=O)c1CC | inactive: -0.832% | –
20 | CCCOc1ccc(C(=O)NC(=S)NNC(=O)c2c(-c3ccccc3)noc2C)cc1 | inactive: 8.42% | –
21 | O=c1c(O)cccc2cc(O)c(O)c(O)c12 | – | active: 1260 nM
22 | Cc1cccc(C)c1N1C(=O)[C@@H]2C(c3ccccc3Cl)=NO[C@@H]2C1=O | inactive: 1.27% | –
23 | CCOc1ccccc1/C=C(/C#N)C(N)=O | inactive: -2.47% | –
24 | Cn1c2ccccc2c(=O)c2c(=O)n(Cc3ccccc3)c(-c3ccc(F)cc3)nc21 | inactive: 4.67% | –
25 | Cc1onc(-c2c(Cl)cccc2Cl)c1NC(=O)NC1CCSC1 (configuration not stated) | inactive: 0.122% | –
26 | N#C/C(=N\Nc1ccccc1)C(=N)N1CCCCCC1 | inactive: 16.5% | –
27 | c1ccc(CSc2ccc(-c3ccccn3)nn2)nc1 | inactive: 1.03% [at 82.4 µM] | –
28 | COC(=O)/C=C(\C)N=Nc1c(O)[nH]c2ccccc12 | inactive: 0.355% | –
29 | COc1ccc(CCNc2c3ccccc3nc3ccccc23)cc1OC | inactive: 38.1% | –
30 | CSc1nc(SCC(=O)O)c2sc3nc(-c4ccccc4)c4c(c3c2n1)CCC4 | inactive: 1.36% | –
31 | CCN1CCN(Cc2cc(=O)oc3ccc(C)cc23)CC1 | inactive: 0.208% | –
32 | CCCS(=O)(=O)c1c(S(=O)(=O)CCC)c2cnccn2c1C(=O)c1ccc(OC)cc1 | inactive: 7.28% | –
